Structures can show the parent of a compound that is named as a salt. The list shows a part of the results. The calls rarely recur for the same compound in another form.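 Kinases were expressed as nanoluciferase fusions in K562 cells and luminescence was read every 4 h between 2 and 18 h as percent of control, DMSO set to 100% and a positive control to 0%. A time point counts as decreased when the signal drops significantly (2 sigma). The hit call is the authors' own, does not follow from the count of time points alone, and its rule is not shown.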
What was measured:
Assay in all cases: number of time points (of 5) at which kinase-Nluc abundance scored as decreased, DMSO-normalised (count); higher = more persistent destabilization
Conditions in all cases: K562; 2-18 h
PRKCA = PRKCA (UniProt P17252)
PTK2 = PTK2 (UniProt Q05397)
PTK2B = PTK2B (UniProt Q14289)
RAF1 = RAF1 (UniProt P04049)
[1] = target: RAF1_S257L (clone: RAF1_mut) (UniProt P04049)
RET = RET (UniProt P07949)
[2] = target: RET_M918T (clone: RET_mut) (UniProt P07949)
RIOK1 = RIOK1 (UniProt Q9BRS2)
RIPK1 = RIPK1 (UniProt Q13546)
RIPK2 = RIPK2 (UniProt O43353)
ROR2 = ROR2 (UniProt Q01974)
RPS6KA1 = RPS6KA1 (UniProt Q15418)
SPHK1 = SPHK1 (UniProt Q9NYA1)
SRC = SRC (UniProt P12931)
STK24 = STK24 (UniProt Q9Y6E0)
STK38 = STK38 (UniProt Q15208)
SYK = SYK (UniProt P43405)
TEC = TEC (UniProt P42680)
TYK2 = TYK2 (UniProt P29597)
ULK3 = ULK3 (UniProt Q6PHR2)

Protein sequences, listed by entry. Tags and fused reporters are not part of them. Lines headed by an entry give the natural chain unless they say otherwise; changes in a name come on top.
UniProt Q9BRS2: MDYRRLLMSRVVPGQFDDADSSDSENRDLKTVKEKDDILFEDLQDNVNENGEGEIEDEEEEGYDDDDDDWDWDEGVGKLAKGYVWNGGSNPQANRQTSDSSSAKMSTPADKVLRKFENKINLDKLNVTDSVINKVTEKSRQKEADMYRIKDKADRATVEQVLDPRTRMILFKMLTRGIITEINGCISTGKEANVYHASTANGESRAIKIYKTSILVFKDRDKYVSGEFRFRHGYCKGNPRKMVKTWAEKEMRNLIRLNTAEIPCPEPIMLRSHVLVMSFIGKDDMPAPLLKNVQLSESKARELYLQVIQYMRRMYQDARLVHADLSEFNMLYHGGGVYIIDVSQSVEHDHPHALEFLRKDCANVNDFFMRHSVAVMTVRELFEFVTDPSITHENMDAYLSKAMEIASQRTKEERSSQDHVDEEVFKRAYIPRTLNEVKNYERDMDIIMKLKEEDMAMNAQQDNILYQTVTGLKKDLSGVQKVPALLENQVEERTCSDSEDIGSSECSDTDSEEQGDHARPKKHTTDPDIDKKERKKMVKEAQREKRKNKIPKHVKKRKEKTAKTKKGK
UniProt Q13546: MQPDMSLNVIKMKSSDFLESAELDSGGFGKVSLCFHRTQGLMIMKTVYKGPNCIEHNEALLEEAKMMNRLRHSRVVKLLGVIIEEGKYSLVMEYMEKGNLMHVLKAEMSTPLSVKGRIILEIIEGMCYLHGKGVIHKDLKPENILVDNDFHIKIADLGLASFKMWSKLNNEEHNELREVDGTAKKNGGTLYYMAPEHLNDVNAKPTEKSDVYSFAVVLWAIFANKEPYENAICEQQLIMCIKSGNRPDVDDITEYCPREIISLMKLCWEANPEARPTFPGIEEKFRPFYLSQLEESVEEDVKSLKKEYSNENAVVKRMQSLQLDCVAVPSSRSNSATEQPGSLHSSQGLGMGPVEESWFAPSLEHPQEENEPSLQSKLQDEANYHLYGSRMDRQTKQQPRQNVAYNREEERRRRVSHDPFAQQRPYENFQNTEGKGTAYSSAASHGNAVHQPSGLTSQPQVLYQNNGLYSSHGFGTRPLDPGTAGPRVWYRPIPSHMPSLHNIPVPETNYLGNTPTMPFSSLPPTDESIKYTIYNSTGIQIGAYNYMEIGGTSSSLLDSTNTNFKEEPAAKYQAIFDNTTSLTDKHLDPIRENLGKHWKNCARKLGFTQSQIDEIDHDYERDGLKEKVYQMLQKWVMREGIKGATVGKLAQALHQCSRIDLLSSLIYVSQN
UniProt Q01974, whole entry: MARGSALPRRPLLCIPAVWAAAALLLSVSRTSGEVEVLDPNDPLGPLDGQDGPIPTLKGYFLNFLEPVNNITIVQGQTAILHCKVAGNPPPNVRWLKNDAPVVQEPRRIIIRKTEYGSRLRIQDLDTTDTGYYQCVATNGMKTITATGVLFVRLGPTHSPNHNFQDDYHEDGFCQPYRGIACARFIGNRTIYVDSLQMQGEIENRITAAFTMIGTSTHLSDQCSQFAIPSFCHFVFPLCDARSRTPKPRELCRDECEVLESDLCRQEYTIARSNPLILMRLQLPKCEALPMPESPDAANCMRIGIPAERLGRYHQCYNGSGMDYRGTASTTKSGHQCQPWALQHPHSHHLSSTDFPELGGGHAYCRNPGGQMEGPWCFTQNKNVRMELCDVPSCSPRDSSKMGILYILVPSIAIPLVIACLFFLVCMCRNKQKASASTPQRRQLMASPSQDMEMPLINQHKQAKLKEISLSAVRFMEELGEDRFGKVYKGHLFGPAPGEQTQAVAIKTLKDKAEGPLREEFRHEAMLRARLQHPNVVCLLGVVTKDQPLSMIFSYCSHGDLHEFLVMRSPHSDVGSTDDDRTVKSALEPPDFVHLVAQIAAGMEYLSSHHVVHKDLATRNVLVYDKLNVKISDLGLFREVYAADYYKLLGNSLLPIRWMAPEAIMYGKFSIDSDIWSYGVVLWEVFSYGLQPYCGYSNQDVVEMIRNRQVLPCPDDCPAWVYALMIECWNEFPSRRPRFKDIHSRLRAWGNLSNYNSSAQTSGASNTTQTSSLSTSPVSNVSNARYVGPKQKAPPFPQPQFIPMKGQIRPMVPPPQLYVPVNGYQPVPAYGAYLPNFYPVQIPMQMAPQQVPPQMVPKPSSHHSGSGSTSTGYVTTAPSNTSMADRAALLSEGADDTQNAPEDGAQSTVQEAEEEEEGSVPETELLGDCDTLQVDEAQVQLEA
UniProt Q15418, whole entry: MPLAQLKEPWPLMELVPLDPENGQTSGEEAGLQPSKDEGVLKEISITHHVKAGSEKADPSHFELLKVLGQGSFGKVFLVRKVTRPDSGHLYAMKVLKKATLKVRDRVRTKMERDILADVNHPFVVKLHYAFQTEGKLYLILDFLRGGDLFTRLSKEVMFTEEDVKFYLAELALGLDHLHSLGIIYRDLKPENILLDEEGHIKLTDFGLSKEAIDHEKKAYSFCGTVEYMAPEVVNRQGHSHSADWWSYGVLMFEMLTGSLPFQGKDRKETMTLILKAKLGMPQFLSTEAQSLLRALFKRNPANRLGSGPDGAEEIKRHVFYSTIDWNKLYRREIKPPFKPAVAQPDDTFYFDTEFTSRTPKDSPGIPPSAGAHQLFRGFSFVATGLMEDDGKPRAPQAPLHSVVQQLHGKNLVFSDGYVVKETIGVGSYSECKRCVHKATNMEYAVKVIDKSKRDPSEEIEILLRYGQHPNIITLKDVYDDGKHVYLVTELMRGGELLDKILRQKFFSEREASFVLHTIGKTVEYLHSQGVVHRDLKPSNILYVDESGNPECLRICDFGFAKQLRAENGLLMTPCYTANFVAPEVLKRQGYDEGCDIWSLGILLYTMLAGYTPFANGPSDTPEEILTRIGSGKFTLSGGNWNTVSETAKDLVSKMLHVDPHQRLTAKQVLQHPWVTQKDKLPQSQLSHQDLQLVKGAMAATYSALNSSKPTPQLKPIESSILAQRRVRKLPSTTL
UniProt Q9NYA1, whole entry: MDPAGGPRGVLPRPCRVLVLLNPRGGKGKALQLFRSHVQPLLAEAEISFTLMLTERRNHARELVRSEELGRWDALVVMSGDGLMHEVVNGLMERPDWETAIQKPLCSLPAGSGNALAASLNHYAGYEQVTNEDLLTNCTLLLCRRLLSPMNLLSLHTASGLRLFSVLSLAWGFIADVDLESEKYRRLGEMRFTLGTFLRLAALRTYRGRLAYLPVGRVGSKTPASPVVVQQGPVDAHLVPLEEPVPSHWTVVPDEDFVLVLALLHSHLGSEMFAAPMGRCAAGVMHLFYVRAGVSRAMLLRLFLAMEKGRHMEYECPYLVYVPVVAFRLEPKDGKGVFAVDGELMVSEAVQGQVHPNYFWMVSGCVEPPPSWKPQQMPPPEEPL
UniProt Q9Y6E0: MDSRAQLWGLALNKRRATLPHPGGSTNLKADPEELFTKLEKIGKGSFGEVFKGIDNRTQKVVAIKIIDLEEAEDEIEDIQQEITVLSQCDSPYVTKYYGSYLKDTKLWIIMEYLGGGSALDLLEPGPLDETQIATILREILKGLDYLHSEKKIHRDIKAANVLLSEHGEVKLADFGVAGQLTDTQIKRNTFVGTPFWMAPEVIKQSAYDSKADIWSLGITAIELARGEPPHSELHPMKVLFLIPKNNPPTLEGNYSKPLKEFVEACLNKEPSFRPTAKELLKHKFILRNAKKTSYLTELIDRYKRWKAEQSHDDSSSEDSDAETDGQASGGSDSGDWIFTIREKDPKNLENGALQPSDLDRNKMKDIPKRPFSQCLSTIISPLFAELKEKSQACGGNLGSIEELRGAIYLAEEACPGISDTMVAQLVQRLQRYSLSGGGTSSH
UniProt Q15208: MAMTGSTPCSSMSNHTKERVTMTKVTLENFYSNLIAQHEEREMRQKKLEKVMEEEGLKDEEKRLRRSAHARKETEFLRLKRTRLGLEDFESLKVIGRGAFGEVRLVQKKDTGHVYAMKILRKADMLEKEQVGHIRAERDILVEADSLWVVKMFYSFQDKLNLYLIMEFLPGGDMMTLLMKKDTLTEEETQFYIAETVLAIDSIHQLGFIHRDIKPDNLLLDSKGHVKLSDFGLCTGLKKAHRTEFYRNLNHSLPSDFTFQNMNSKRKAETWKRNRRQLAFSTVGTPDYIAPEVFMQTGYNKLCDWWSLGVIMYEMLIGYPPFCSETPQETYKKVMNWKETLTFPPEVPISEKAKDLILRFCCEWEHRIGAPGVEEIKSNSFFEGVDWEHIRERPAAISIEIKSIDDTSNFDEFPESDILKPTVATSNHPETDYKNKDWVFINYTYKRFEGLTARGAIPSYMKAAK
UniProt P29597: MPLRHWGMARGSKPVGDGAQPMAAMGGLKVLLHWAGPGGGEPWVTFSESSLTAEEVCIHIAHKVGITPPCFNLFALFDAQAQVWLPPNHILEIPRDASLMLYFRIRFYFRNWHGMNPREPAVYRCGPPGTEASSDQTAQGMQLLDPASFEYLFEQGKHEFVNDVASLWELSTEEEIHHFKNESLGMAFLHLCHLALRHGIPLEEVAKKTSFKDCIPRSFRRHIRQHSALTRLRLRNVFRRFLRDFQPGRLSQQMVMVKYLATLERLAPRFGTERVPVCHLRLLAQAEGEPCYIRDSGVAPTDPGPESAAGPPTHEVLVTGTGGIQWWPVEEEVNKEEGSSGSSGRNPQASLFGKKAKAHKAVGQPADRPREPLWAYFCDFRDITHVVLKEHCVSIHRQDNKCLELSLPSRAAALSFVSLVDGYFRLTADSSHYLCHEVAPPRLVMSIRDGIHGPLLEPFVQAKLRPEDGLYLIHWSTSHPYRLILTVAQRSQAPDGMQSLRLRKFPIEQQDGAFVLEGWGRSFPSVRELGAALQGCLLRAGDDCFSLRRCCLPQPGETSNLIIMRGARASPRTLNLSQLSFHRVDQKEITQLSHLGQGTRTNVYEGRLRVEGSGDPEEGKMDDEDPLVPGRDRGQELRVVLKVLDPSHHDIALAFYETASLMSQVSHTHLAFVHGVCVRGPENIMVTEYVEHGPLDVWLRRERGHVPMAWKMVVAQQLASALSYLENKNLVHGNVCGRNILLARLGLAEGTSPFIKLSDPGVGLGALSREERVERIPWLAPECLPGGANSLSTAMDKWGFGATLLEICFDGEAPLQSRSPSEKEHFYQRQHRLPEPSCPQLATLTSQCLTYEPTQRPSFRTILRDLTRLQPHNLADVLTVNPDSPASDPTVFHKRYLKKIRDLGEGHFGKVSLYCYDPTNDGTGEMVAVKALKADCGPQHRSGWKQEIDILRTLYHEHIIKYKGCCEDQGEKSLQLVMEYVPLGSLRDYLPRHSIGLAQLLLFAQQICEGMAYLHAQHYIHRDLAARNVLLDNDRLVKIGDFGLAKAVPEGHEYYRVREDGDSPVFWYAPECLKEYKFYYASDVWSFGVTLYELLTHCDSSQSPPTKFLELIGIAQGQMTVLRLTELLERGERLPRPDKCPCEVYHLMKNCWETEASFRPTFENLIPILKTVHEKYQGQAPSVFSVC
UniProt Q6PHR2: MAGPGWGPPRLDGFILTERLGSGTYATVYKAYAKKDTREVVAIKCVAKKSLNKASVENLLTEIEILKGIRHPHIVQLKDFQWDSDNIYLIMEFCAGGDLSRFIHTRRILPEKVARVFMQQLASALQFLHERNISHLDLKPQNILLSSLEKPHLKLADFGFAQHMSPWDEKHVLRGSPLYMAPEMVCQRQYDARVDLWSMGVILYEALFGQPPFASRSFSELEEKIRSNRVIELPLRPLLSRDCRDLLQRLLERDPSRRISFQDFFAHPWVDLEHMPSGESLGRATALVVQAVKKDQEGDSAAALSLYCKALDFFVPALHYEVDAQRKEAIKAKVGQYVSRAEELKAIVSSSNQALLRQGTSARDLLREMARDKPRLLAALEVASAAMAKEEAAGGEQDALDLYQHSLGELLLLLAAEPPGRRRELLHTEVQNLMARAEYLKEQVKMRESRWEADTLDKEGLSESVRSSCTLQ

SMILES | number of time points (PRKCA) | number of time points (PTK2) | number of time points (PTK2B) | number of time points (RAF1) | number of time points [1] | number of time points (RET) | number of time points [2] | number of time points (RIOK1) | number of time points (RIPK1) | number of time points (RIPK2) | number of time points (ROR2) | number of time points (RPS6KA1) | number of time points (SPHK1) | number of time points (SRC) | number of time points (STK24) | number of time points (STK38) | number of time points (SYK) | number of time points (TEC) | number of time points (TYK2) | number of time points (ULK3)
CCOc1nc(Nc2ccc(C(=O)N3CCOCC3)cc2OC)nc2[nH]ccc12 [LRRK2 inhibitor 1] (2.5 µM) | 0 | 0 | 0 | 0 | 0 | 0 | 0 | 0 | 0 | 0 | 0 | 0 | 0 | 0 | 0 | 0 | 0 | 0 | 0 | 0
O=Nc1c(-c2c(O)[nH]c3ccccc23)[nH]c2ccccc12 [Indirubin-3'-monoxime] (2.5 µM) | 0 | 0 | 0 | 0 | 0 | 0 | 0 | 0 | 0 | 0 | 0 | 0 | 0 | 0 | 0 | 0 | 0 | 0 | 0 | 0
Cc1cc(C(C)Nc2ccccc2)c2nc(N3CCOCC3)cc(=O)n2c1 (stereo not given) (10 µM) | 0 | 0 | 0 | 0 | 0 | 0 | 0 | 0 | 0 | 0 | 0 | 0 | 0 | 0 | 0 | 0 | 0 | 0 | 0 | 0
CC[C@@H]1[C@H](F)C(=O)N[C@@H]1COc1nccc2cc(C(N)=O)c(OC)cc12 (10 µM) | 0 | 0 | 0 | 0 | 0 | 0 | 0 | 0 | 0 | 0 | 0 | 0 | 0 | 0 | 0 | 0 | 0 | 0 | 0 | 0
O=c1[nH]ccc2cc(OC3CCNCC3)ccc12 (10 µM) | 0 | 0 | 0 | 0 | 0 | 0 | 0 | 0 | 0 | 0 | 0 | 0 | 0 | 0 | 0 | 0 | 0 | 0 | 0 | 0
CCN1C(=O)CNc2ncc(-c3ccc(-c4nc[nH]n4)nc3C)nc21 [CC-115 (hydrochloride)] (2.5 µM) | 0 | 3 | 1 | 2 | 4 | 2 | 4 | 2 | 3 | 3 | 0 | 0 | 1 | 0 | 0 | 1 | 1 | 2 | 4 | 3
O=C1NC(=O)C(c2cnc3ccccn23)=C1c1cn2c3c(cc(F)cc13)CN(C(=O)N1CCCCC1)CC2 (2.5 µM) | 0 | 0 | 0 | 0 | 0 | 0 | 0 | 0 | 0 | 0 | 0 | 0 | 0 | 0 | 0 | 0 | 0 | 0 | 0 | 0
Cc1cc2cc(Oc3ccnc(Nc4cccc(CS(=O)(=O)NCCN(C)C)c4)n3)ccc2[nH]1 [Sulfatinib] (10 µM) | 0 | 1 | 0 | 0 | 4 | 0 | 0 | 1 | 2 | 3 | 0 | 0 | 0 | 0 | 0 | 0 | 0 | 0 | 3 | 1
N#Cc1ccc(-c2c(-c3ncn[nH]3)sc(N3CCOCC3)c2C#N)c(F)c1 (10 µM) | 0 | 0 | 0 | 1 | 3 | 0 | 0 | 0 | 0 | 0 | 0 | 0 | 0 | 0 | 0 | 0 | 0 | 0 | 0 | 0
CCCCCCCC/C=C\CCCCCCCC(=O)NCC(=O)O [N-Oleoyl glycine] (10 µM) | 0 | 0 | 0 | 0 | 0 | 0 | 0 | 0 | 0 | 0 | 0 | 0 | 0 | 0 | 0 | 0 | 0 | 0 | 0 | 0
COc1cc(N2CCC(O)CC2)ccc1Nc1cc(Nc2ccccc2S(=O)(=O)C(C)C)c2cc[nH]c2n1 (10 µM) | 0 | 0 | 0 | 0 | 0 | 0 | 0 | 0 | 0 | 0 | 0 | 0 | 0 | 0 | 0 | 0 | 0 | 0 | 0 | 0
CN1CCN(CCCNc2ncc(Cl)c(-c3cc4c(C(=O)NC5CC5)cccc4s3)n2)CC1 (10 µM) | 0 | 0 | 0 | 0 | 0 | 0 | 0 | 0 | 0 | 0 | 0 | 0 | 0 | 0 | 0 | 0 | 0 | 0 | 0 | 0
C=CC(=O)Nc1cccc(Oc2nc(Nc3ccc(N4CCN(C)CC4)cc3)nc3ccoc23)c1 [Poseltinib] (10 µM) | 0 | 0 | 0 | 0 | 0 | 0 | 0 | 0 | 0 | 0 | 0 | 0 | 0 | 0 | 0 | 0 | 0 | 0 | 0 | 0
O=c1cc(-c2ccc(O)c(O)c2O)oc2ccccc12 (10 µM) | 0 | 0 | 0 | 0 | 0 | 0 | 0 | 0 | 0 | 0 | 0 | 0 | 0 | 0 | 0 | 0 | 0 | 0 | 0 | 0
C[C@H]1Cc2ccccc2N1C(=O)Cc1nc(N2CCOCC2)cc(=O)[nH]1 (2.5 µM) | 0 | 0 | 0 | 0 | 0 | 0 | 0 | 0 | 0 | 0 | 0 | 0 | 0 | 0 | 0 | 0 | 0 | 0 | 0 | 0
Cc1nc(NC(=O)NCCc2nnn(CCF)n2)sc1-c1ccc(S(C)(=O)=O)c(F)c1 (10 µM) | 0 | 0 | 0 | 0 | 0 | 0 | 0 | 0 | 0 | 0 | 0 | 0 | 3 | 0 | 0 | 0 | 0 | 0 | 0 | 0
Cc1ccc(-c2nn(C(C)(C)CNC(=O)c3ccncc3)c3ncnc(N)c23)cc1 (2.5 µM) | 0 | 0 | 0 | 0 | 0 | 0 | 0 | 0 | 0 | 0 | 0 | 0 | 0 | 0 | 0 | 0 | 0 | 0 | 0 | 0
O=S(=O)(c1cccc2cnccc12)N1CCNCC1 (10 µM) | 0 | 0 | 0 | 0 | 0 | 0 | 0 | 0 | 0 | 0 | 0 | 0 | 0 | 0 | 0 | 0 | 0 | 0 | 0 | 0
Cc1ccc(-c2ncn(-c3ccc(Nc4nccc(-c5cccc(N6CCOCC6)c5)n4)cc3)n2)cn1 (10 µM) | 0 | 0 | 0 | 0 | 0 | 0 | 0 | 0 | 0 | 0 | 0 | 0 | 0 | 0 | 0 | 0 | 0 | 0 | 0 | 0
O=C(CO)N1CCC(c2n[nH]c(-c3ccc(Cl)cc3)c2-c2ccncn2)CC1 (10 µM) | 0 | 0 | 0 | 0 | 0 | 0 | 0 | 0 | 0 | 0 | 0 | 0 | 0 | 0 | 0 | 0 | 0 | 0 | 0 | 0
Cc1cc(Nc2nc(N[C@@H](C)c3ncc(F)cn3)ncc2Cl)[nH]n1 (10 µM) | 0 | 0 | 0 | 0 | 0 | 0 | 0 | 0 | 0 | 0 | 0 | 0 | 0 | 0 | 0 | 0 | 0 | 0 | 0 | 0
O=c1nc(N2CCOCC2)oc2c(-c3cccc4c3sc3ccccc34)cccc12 (10 µM) | 0 | 0 | 0 | 0 | 0 | 0 | 0 | 0 | 0 | 0 | 0 | 0 | 0 | 0 | 0 | 0 | 0 | 0 | 0 | 0
COc1cc(N2CCC(N3CCN(C)CC3)CC2)ccc1Nc1nc2c(c(Nc3ccccc3S(=O)(=O)NC(C)C)n1)CCN2 [Conteltinib] (10 µM) | 0 | 0 | 0 | 0 | 0 | 0 | 0 | 0 | 0 | 0 | 0 | 0 | 0 | 0 | 0 | 0 | 0 | 0 | 0 | 0
CC1(N)CCN(c2cnc3c(-c4cccc(Cl)c4Cl)[nH]nc3n2)CC1 (2.5 µM) | 0 | 0 | 0 | 0 | 0 | 0 | 0 | 0 | 0 | 0 | 0 | 0 | 0 | 0 | 0 | 0 | 0 | 0 | 0 | 0

Some of the entries so far, as a markdown table.

| SMILES | number of time points (PRKCA) | number of time points (PTK2) | number of time points (PTK2B) | number of time points (RAF1) | number of time points [1] | number of time points (RET) | number of time points [2] | number of time points (RIOK1) | number of time points (RIPK1) | number of time points (RIPK2) | number of time points (ROR2) | number of time points (RPS6KA1) | number of time points (SPHK1) | number of time points (SRC) | number of time points (STK24) | number of time points (STK38) | number of time points (SYK) | number of time points (TEC) | number of time points (TYK2) | number of time points (ULK3) |
| --- | --- | --- | --- | --- | --- | --- | --- | --- | --- | --- | --- | --- | --- | --- | --- | --- | --- | --- | --- | --- |
| CCN1C(=O)CNc2ncc(-c3ccc(-c4nc[nH]n4)nc3C)nc21 [CC-115 (hydrochloride)] (2.5 µM) | 0 | 3 | 1 | 2 | 4 | 2 | 4 | 2 | 3 | 3 | 0 | 0 | 1 | 0 | 0 | 1 | 1 | 2 | 4 | 3 |
| O=C1NC(=O)C(c2cnc3ccccn23)=C1c1cn2c3c(cc(F)cc13)CN(C(=O)N1CCCCC1)CC2 (2.5 µM) | 0 | 0 | 0 | 0 | 0 | 0 | 0 | 0 | 0 | 0 | 0 | 0 | 0 | 0 | 0 | 0 | 0 | 0 | 0 | 0 |

Reference: the supplement of paper PMC12823440, “Inhibitors supercharge kinase turnover through native proteolytic circuits” (Nature, 2025)
